# Drug screen on melanoma cell lines: cell count

Source: doi:10.1371/journal.pone.0140310, primary screening data, rounded.

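The test systems are human melanoma cell lines, treated with two drugs together for 72 h and then stained and imaged. The read-out is cell count (nuclei) in % of the DMSO control; lower values mean stronger growth inhibition or killing. Concentrations were fixed for each drug; these are the lower of two levels, a fifth of the higher. These are primary screening values without error estimates.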
This is part of the screen, not chosen by result.
A dash means that no value is listed here.

Compounds and concentrations:
sunitinib, 400 nM: CCN(CC)CCNC(=O)c1c(C)[nH]c(/C=C2\C(=O)Nc3ccc(F)cc32)c1C
dovitinib, 100 nM: CN1CCN(c2ccc3nc(-c4c(N)c5c(F)cccc5[nH]c4=O)[nH]c3c2)CC1
pazopanib, 400 nM: Cc1ccc(Nc2nccc(N(C)c3ccc4c(C)n(C)nc4c3)n2)cc1S(N)(=O)=O
CP-690550, 1000 nM: C[C@@H]1CCN(C(=O)CC#N)C[C@@H]1N(C)c1ncnc2[nH]ccc12
NVP-TAE684, 80 nM: COc1cc(N2CCC(N3CCN(C)CC3)CC2)ccc1Nc1ncc(Cl)c(Nc2ccccc2S(=O)(=O)C(C)C)n1
BMS-536924, 200 nM: Cc1cc(N2CCOCC2)cc2[nH]c(-c3c(NC[C@@H](O)c4cccc(Cl)c4)cc[nH]c3=O)nc12
ENMD-2076, 40 nM: Cc1cc(Nc2cc(N3CCN(C)CC3)nc(/C=C/c3ccccc3)n2)n[nH]1
tipifarnib, 10 nM: Cn1cncc1[C@@](N)(c1ccc(Cl)cc1)c1ccc2c(c1)c(-c1cccc(Cl)c1)cc(=O)n2C
Src-I1, 2000 nM: COc1cc2ncnc(Nc3ccc(Oc4ccccc4)cc3)c2cc1OC
everolimus, 20 nM: CO[C@H]1C[C@@H]2CC[C@@H](C)[C@@](O)(O2)C(=O)C(=O)N2CCCC[C@H]2C(=O)O[C@H]([C@H](C)C[C@@H]2CC[C@@H](OCCO)[C@H](OC)C2)CC(=O)[C@H](C)/C=C(\C)[C@@H](O)[C@@H](OC)C(=O)[C@H](C)C[C@H](C)/C=C/C=C/C=C/1C
SNS-032, 10 nM: CC(C)(C)c1cnc(CSc2cnc(NC(=O)C3CCNCC3)s2)o1
fludarabine, 200 nM: Nc1nc(F)nc2c1ncn2[C@@H]1O[C@H](CO)[C@@H](O)[C@@H]1O
BI-78D3, 200 nM: O=c1[nH]nc(Sc2ncc([N+](=O)[O-])s2)n1-c1ccc2c(c1)OCCO2
bexarotene, 2000 nM: C=C(c1ccc(C(=O)O)cc1)c1cc2c(cc1C)C(C)(C)CCC2(C)C

Pair,MEL-HO,A375,LB2518-MEL,COLO 829,IPC-298,C32,LOX IMVI,A2058,G-361,A101D,501mel,COLO 800,IST-MEL1,COLO 792
ENMD-2076 + bexarotene,103,106,-,89.1,90.9,95.1,92.6,95.8,94.6,127,-,86.9,110,99.2
dovitinib + ENMD-2076,100,94.4,80.2,103,109,101,105,96.1,94.1,101,-,94.1,98.1,114
NVP-TAE684 + everolimus,62.0,-,69.6,86.9,76.6,85.4,89.7,54.6,76.6,81.8,43.9,77.1,87.3,46.6
ENMD-2076 + pazopanib,96.8,87.5,110,94.2,77.8,90.7,133,88.7,93.5,95.0,-,104,99.8,97.5
Src-I1 + fludarabine,94.2,-,122,97.1,88.2,100,113,94.2,99.0,103,5.4,98.0,92.9,97.5
NVP-TAE684 + ENMD-2076,103,-,110,120,96.3,89.5,123,90.6,107,99.0,75.5,115,97.4,92.1
BMS-536924 + fludarabine,97.9,7.5,87.4,86.1,95.9,89.2,79.4,95.3,95.2,101,-,50.6,92.6,76.1
sunitinib + Src-I1,107,-,121,138,114,91.4,108,102,95.6,72.4,87.2,59.7,100,103
BI-78D3 + bexarotene,80.5,126,96.1,110,102,98.5,138,110,89.9,103,-,119,102,88.4
ENMD-2076 + CP-690550,91.3,88.3,81.9,89.5,94.6,97.7,127,82.9,92.9,105,-,99.3,100,93.0
CP-690550 + Src-I1,84.5,128,107,133,97.7,101,88.5,88.8,107,87.7,115,119,103,81.8
dovitinib + BMS-536924,92.8,74.4,85.7,97.4,93.8,84.0,118,91.2,74.0,83.8,-,53.7,88.1,82.5
tipifarnib + Src-I1,92.0,87.1,89.2,90.2,83.5,94.0,145,88.5,97.8,81.6,84.7,99.4,95.0,92.0
BI-78D3 + pazopanib,103,99.4,102,92.1,83.1,94.3,84.2,105,91.1,91.4,-,110,93.4,121
BI-78D3 + CP-690550,97.6,87.5,91.8,95.2,106,98.3,203,88.1,97.1,96.4,-,135,95.3,89.6
dovitinib + SNS-032,102,108,92.8,107,101,95.5,95.8,95.8,93.2,88.6,-,54.3,103,100
Src-I1 + ENMD-2076,88.4,-,-,133,102,91.6,129,103,92.9,90.6,-,90.3,97.5,95.4
ENMD-2076 + tipifarnib,106,77.7,74.5,96.5,93.5,84.6,84.5,84.3,72.3,78.0,-,111,92.7,91.8
NVP-TAE684 + tipifarnib,96.8,52.4,81.9,82.9,94.0,66.3,144,79.8,95.3,95.0,76.8,85.3,109,80.9
sunitinib + BI-78D3,100,86.0,97.3,120,98.8,93.7,121,95.8,96.3,103,-,70.7,103,96.5
everolimus + BI-78D3,68.5,52.8,70.6,80.3,77.4,87.3,73.4,69.8,48.5,89.1,-,67.1,69.6,46.3
fludarabine + tipifarnib,97.4,9.3,75.6,85.9,83.9,86.7,103,74.7,86.2,82.1,-,99.9,82.0,84.9
pazopanib + everolimus,64.8,51.5,76.5,70.7,55.5,101,32.1,57.4,70.4,90.2,-,73.3,82.7,52.4
pazopanib + dovitinib,89.1,114,93.4,98.0,83.9,97.0,68.8,91.4,92.0,86.1,-,89.4,91.7,98.9
SNS-032 + tipifarnib,96.4,70.7,78.1,95.9,97.7,78.8,97.2,82.2,91.4,65.7,-,65.6,91.4,78.2
everolimus + bexarotene,62.7,46.8,89.1,75.3,72.1,89.1,78.6,73.5,62.4,77.4,-,72.1,85.4,52.6
tipifarnib + everolimus,63.4,61.5,86.2,79.6,65.9,97.8,104,65.8,65.8,76.0,-,48.3,81.0,54.5
NVP-TAE684 + BMS-536924,97.0,64.5,96.4,90.1,98.5,83.7,102,80.6,74.3,97.6,65.8,48.2,92.4,89.6
BMS-536924 + BI-78D3,103,76.0,107,113,99.0,92.0,116,103,99.3,94.1,-,46.9,98.9,84.4
SNS-032 + BI-78D3,106,95.6,90.2,92.5,107,111,106,92.5,111,94.7,-,102,95.9,96.5

The last 2 entries again:

Pair,MEL-HO,A375,LB2518-MEL,COLO 829,IPC-298,C32,LOX IMVI,A2058,G-361,A101D,501mel,COLO 800,IST-MEL1,COLO 792
BMS-536924 + BI-78D3,103,76.0,107,113,99.0,92.0,116,103,99.3,94.1,-,46.9,98.9,84.4
SNS-032 + BI-78D3,106,95.6,90.2,92.5,107,111,106,92.5,111,94.7,-,102,95.9,96.5